In article doi:10.1101/431023:
Where two headings read alike, the source gives them in different places. No constants are given. Whether binding was seen depends on the method and setting. In cells and extracts the contact can be indirect. These calls come from enrichment with a bait or labelling near it, and not all partners need be listed. Sequences can lack the tags named with a protein.

Protein sequences, listed by entry. Tags and fused reporters are not part of them.
UniProt P10630: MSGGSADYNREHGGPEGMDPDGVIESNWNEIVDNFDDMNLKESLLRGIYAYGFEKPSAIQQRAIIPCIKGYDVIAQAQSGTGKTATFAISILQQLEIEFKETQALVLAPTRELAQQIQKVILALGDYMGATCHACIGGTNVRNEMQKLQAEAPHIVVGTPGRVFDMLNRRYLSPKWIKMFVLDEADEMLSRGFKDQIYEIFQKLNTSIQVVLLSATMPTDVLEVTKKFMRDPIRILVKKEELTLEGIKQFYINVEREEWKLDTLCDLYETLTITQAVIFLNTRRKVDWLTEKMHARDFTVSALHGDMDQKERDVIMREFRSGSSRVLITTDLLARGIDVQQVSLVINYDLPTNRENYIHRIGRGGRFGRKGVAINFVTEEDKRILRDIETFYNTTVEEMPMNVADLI
UniProt Q8CGN4: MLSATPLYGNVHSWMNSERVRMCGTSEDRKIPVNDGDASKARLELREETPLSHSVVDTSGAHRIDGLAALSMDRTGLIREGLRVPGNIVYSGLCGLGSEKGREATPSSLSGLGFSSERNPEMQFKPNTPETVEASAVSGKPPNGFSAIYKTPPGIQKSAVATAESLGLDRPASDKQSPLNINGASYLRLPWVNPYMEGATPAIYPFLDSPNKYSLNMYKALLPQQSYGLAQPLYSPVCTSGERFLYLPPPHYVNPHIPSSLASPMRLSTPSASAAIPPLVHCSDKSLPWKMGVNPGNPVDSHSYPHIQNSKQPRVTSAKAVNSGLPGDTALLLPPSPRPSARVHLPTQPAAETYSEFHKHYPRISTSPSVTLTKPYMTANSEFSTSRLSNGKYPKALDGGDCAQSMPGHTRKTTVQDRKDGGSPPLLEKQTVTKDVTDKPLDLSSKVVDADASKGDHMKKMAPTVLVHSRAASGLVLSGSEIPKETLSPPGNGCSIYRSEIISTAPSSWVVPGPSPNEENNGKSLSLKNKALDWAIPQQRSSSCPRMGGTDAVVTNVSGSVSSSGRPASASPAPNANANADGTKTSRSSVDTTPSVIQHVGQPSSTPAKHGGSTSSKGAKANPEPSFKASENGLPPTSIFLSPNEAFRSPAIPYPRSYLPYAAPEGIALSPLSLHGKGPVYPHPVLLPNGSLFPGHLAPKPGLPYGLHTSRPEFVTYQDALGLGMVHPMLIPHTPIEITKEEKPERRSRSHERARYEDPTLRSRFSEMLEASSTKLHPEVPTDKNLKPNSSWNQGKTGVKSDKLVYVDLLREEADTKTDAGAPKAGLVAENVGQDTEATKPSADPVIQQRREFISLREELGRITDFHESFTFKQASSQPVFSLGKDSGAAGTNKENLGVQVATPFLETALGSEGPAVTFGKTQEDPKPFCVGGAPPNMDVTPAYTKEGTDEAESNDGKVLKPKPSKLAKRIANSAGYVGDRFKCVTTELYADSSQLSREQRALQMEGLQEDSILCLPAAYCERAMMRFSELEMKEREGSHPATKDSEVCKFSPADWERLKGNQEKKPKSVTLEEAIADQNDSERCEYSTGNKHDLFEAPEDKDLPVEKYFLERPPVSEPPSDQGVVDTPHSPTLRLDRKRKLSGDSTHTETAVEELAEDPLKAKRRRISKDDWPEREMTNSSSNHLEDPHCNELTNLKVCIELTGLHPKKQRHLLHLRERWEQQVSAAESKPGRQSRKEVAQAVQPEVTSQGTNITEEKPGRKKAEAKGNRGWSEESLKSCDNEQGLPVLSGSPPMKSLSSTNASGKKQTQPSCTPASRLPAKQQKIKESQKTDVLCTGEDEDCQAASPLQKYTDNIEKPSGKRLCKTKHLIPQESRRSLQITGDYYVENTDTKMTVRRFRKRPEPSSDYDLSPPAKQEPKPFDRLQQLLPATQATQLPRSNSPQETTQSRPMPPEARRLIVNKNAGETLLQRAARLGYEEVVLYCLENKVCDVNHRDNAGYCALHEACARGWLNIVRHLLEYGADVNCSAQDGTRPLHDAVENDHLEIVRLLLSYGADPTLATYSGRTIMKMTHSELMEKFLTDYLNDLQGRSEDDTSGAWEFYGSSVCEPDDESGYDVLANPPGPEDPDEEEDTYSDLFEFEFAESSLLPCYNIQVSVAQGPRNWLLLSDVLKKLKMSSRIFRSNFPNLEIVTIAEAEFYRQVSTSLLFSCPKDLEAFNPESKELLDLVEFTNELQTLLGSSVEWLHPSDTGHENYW
UniProt Q61686: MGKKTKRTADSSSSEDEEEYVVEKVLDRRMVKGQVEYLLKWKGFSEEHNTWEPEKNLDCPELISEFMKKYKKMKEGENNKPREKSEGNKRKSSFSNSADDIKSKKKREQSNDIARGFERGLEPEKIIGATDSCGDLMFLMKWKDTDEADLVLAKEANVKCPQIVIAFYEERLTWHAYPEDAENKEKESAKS
UniProt Q8VHR5: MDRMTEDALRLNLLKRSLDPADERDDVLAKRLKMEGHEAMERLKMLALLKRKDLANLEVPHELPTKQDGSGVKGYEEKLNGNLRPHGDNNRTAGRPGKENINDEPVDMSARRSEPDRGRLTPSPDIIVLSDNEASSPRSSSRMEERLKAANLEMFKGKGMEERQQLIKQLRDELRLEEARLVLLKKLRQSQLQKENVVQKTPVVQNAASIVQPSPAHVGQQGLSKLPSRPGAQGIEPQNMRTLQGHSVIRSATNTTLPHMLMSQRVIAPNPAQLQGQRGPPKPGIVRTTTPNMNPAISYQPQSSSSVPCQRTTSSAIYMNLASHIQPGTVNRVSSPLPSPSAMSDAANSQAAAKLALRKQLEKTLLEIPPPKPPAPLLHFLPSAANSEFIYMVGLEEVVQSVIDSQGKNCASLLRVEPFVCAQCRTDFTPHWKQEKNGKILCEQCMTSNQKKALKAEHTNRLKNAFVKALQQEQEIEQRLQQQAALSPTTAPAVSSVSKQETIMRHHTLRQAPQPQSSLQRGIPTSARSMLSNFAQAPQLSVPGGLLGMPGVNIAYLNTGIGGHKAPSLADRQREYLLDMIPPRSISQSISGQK
UniProt Q8BX09: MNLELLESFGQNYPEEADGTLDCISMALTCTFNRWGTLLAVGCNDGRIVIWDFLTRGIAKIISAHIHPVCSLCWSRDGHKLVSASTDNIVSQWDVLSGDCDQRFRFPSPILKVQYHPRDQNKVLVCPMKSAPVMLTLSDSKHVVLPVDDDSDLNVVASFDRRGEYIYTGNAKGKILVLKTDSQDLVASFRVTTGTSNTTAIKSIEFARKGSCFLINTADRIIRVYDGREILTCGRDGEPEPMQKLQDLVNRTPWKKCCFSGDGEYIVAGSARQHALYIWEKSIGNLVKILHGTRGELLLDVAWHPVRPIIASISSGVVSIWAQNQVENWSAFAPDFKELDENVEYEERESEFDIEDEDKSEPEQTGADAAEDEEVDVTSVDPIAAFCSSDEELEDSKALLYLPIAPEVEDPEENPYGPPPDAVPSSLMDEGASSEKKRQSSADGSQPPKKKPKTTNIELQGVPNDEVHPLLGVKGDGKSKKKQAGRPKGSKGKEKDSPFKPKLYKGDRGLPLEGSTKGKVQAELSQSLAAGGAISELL
UniProt Q62095: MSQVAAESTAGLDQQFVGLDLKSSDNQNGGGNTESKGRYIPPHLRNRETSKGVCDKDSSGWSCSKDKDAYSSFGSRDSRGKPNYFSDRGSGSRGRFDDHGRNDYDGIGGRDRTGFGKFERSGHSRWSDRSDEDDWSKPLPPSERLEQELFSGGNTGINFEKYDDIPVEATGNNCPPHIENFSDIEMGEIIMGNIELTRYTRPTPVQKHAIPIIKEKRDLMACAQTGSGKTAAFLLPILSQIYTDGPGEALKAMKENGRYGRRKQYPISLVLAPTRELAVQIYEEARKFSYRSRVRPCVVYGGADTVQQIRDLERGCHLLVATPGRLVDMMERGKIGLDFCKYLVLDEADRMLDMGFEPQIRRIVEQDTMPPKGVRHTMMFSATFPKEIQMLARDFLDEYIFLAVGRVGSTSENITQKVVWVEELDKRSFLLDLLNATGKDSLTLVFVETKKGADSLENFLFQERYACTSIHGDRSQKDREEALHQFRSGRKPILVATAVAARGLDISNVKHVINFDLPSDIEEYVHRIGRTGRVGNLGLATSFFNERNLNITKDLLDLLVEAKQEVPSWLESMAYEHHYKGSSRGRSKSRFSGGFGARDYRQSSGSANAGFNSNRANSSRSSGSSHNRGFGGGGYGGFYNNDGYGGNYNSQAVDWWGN
UniProt Q60974: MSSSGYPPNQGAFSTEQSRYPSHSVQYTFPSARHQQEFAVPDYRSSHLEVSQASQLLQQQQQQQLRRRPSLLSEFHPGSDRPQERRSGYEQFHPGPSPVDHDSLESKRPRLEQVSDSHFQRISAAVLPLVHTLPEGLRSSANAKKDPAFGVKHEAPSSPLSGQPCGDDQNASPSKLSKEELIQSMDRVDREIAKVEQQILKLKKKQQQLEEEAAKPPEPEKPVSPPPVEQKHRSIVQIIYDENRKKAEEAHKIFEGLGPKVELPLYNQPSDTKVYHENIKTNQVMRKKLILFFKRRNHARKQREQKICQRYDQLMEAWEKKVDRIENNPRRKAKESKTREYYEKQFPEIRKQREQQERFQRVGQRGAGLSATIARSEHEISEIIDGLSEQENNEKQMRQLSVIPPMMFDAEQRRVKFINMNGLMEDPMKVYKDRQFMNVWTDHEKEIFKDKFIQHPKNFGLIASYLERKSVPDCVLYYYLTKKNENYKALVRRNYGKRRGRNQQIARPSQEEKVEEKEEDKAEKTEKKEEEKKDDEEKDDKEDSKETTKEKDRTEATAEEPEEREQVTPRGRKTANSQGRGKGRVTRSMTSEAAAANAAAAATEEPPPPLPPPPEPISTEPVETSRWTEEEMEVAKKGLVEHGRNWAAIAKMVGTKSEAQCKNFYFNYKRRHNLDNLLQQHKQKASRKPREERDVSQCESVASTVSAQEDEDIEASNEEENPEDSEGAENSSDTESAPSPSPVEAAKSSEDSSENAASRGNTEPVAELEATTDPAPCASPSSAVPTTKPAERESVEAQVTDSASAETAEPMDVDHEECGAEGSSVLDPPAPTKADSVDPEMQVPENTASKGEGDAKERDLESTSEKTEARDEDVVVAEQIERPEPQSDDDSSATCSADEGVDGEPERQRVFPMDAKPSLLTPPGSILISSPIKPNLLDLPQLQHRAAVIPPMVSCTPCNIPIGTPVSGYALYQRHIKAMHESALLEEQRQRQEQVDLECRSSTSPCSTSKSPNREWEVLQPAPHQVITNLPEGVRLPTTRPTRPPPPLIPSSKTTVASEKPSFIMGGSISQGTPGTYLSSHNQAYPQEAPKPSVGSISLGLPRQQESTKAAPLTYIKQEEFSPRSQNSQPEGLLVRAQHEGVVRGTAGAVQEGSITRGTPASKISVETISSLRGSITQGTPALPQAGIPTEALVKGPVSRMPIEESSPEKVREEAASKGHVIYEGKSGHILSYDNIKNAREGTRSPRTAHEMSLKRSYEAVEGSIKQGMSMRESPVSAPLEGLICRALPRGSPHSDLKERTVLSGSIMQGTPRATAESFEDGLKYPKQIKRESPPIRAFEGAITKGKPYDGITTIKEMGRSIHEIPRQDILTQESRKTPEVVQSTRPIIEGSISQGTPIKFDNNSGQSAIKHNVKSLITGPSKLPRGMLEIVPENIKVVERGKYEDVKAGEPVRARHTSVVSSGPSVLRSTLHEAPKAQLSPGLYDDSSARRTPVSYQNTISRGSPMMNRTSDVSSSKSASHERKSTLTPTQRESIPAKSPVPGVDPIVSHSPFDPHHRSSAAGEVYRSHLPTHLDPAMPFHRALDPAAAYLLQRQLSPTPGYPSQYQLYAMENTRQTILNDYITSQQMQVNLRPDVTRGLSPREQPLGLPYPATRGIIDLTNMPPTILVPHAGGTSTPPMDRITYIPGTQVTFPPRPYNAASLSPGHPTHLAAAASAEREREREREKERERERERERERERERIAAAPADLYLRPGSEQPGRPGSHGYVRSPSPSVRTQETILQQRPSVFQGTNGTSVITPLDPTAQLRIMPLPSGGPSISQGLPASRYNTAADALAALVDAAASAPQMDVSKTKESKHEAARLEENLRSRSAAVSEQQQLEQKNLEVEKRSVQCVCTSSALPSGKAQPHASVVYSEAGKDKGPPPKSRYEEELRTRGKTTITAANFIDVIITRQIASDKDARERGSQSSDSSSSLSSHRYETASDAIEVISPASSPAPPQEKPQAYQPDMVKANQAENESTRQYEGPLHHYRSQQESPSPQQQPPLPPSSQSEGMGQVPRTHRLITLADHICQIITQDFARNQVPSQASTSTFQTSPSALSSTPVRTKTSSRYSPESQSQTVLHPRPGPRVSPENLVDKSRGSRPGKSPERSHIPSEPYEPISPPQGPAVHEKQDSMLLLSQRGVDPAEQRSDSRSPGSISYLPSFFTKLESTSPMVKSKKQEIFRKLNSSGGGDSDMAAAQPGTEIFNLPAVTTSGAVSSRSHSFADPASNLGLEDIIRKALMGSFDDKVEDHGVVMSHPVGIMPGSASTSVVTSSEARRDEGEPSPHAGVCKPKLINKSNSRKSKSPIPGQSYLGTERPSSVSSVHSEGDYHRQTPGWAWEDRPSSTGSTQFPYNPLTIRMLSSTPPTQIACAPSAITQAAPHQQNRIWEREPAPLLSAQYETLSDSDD

T1: 3xFLAG-BirA*-tagged TCF7L1 at the endogenous TCF7L1 locus (mouse (endogenous in mESCs)) (UniProt Q9Z1J1)
T1 sequence: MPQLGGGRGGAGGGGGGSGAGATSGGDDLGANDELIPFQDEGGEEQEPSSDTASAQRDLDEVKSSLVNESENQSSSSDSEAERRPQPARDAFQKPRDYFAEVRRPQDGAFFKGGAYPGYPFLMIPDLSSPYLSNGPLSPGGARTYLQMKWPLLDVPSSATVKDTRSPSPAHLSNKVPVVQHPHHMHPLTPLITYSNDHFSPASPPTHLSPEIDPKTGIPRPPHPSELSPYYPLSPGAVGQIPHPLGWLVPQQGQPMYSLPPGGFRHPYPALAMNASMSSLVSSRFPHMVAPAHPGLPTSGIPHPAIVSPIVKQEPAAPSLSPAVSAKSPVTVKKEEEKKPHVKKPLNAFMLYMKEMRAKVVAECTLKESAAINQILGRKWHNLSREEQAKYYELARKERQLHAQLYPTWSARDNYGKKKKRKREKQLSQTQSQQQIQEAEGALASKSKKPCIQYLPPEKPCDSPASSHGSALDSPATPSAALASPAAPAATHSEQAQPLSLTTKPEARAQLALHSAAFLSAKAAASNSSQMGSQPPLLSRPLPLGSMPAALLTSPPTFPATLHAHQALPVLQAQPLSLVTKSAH

T2: dox-inducible 3xFLAG-BirA*-tagged TCF7L1 in the Rosa26 locus (UniProt Q9Z1J1)
T2 sequence: T1 sequence

B1: BCL9L (protein, UniProt Q67FY2 1-1494)
chain: MRILANKTRLPHPRRREAPGSPPLSPRGHCPPAPAKPMHPENKLTNHGKTGNGGAQSQHQNVNQGPTCNLGSKGVGAGSHGAKANQISPSNSSLKNPQAGVSPFSSLKGKVKRERSVSVDSGEQREAGTPSLDSEAKEVAPRSKRRCVLERKQPYSGDEWCSGPDSEEDDKPIAAAHNCNVADPAMVTPQLGPGQTAQLPLSESSAPGPQHGPQPGLRPDVPGGGGGGVPGKPPSQFVYVFTTHLANTAAEAVLQGRAESILAYHQQNVPRAKLDQAPKVPPTPEPLPLNTPSAGTPQSQPPPLPPPPPAPGSAPPALPPEGPPEDTSQDLAPNSVGAASTGGGTGGTHPNTPTAATANNPLPPGGDPGSAPGSALLGEATPTGNGQRNLVGSEGLSKEQLEHRERSLQTLRDIERLLLRSGETEPFLKGPPGGAGEGGPPAQAPSAAQPPPSAPPGGLKKYEEPLQSMISQTQSLGGPPLEHEVPGHPQGGDMGQQMNMMMQRLGQDSLTPEQVAWRKLQEEYYEEKRRKEEQIGLHGGRPLQDMVGMGGMMGRGPPPPYHSKPGDQWPPGMGAQLRGPMDVQDPMQLRPGPPFPGPRFPGNQMQRVPGFGGMQSMPMEVPMNAMQRPVRPGMAWNEDLPPIGGPSNFAQNAVPYPGGQGEAERFMTPRVREELLRHQLLEKRSMGMQRPLGMAGSGMGQSMEMERMIQAHRQMDPAMFPGQMTGGDGLAGTPMGIEFGGGRGLLSPPMGQSGLREVDPPMGPGNLNMNMNVNMNMNMNLNVQMTPQQQMLMSQKMRGPGDMMGPQGLSPEEMARVRAQNSSGMMGGPQKMLMPSQFPNQGQQGFSGGQGPYQAMPQDMGNTPDMFSPDQSSVPMGTVGTARLSHMPLPPASNPPGSVHLASNRGLGRRPSDLTISINQMGSPGMGHLKSPTLSQVHSPLVTSPSANLKSPQTPSQMVPLPSANPPGPLKSPQVLSSSLGVRSPTGSPSRLKSPSMAVPSPGWVASPKTAMPSPGVSQNKQPPLSINSSSTLGNVEQGALPPSAPRNSSSAPPANPSSGLMNPSLPFTSSPDPTPSQNPLSLMMSQMSKYAMPSSTPLYHNAIKTIATSDDELLPDRPLLPPPPPPQGSGPGISNNQPNQMHMNPAAAQSPMGMNLPGQQPLSHEPPPTMLPSPTPLGSNIPLHPNAQGTGGSSQNSMMMAPGGPDSLNAPCGPVPSSSQMMSFPPRLQQPHGAMAPTGAGGPGLQQHYPSGMALPPEDLPTQPPGPIPPQQHLMGKGMTGRMGDAYPPGVLPGVASVLNDPELSEVIRPTPTGIPEFDLSRIIPSEKPSSTLQYFPKSENQPPKAQPPNLHLMNLQNMMAEQTPSRPPNLPGQQGVQRGLSMSMCHPGQMSLLGRTGVPPQQGMVPHGLHQGVMSPPQGLMTQQNFMLMKQRGVGGEVYTQPPHMLSPQGSLMGPPPQQNLMVSHPLRQRSVSLDSQMGYLPTPGSMANLPF
B2: OGT (protein, UniProt Q8CGY8 1-1046)
chain: MASSVGNVADSTEPTKRMLSFQGLAELAHREYQAGDFEAAERHCMQLWRQEPDNTGVLLLLSSIHFQCRRLDRSAHFSTLAIKQNPLLAEAYSNLGNVYKERGQLQEAIEHYRHALRLKPDFIDGYINLAAALVAAGDMEGAVQAYVSALQYNPDLYCVRSDLGNLLKALGRLEEAKACYLKAIETQPNFAVAWSNLGCVFNAQGEIWLAIHHFEKAVTLDPNFLDAYINLGNVLKEARIFDRAVAAYLRALSLSPNHAVVHGNLACVYYEQGLIDLAIDTYRRAIELQPHFPDAYCNLANALKEKGSVAEAEDCYNTALRLCPTHADSLNNLANIKREQGNIEEAVRLYRKALEVFPEFAAAHSNLASVLQQQGKLQEALMHYKEAIRISPTFADAYSNMGNTLKEMQDVQGALQCYTRAIQINPAFADAHSNLASIHKDSGNIPEAIASYRTALKLKPDFPDAYCNLAHCLQIVCDWTDYDERMKKLVSIVAEQLEKNRLPSVHPHHSMLYPLSHGFRKAIAERHGNLCLDKINVLHKPPYEHPKDLKLSDGRLRVGYVSSDFGNHPTSHLMQSIPGMHNPDKFEVFCYALSPDDGTNFRVKVMAEANHFIDLSQIPCNGKAADRIHQDGIHILVNMNGYTKGARNELFALRPAPIQAMWLGYPGTSGALFMDYIITDQETSPAEVAEQYSEKLAYMPHTFFIGDHANMFPHLKKKAVIDFKSNGHIYDNRIVLNGIDLKAFLDSLPDVKIVKMKCPDGGDNPDSSNTALNMPVIPMNTIAEAVIEMINRGQIQITINGFSISNGLATTQINNKAATGEEVPRTIIVTTRSQYGLPEDAIVYCNFNQLYKIDPSTLQMWANILKRVPNSVLWLLRFPAVGEPNIQQYAQNMGLPQNRIIFSPVAPKEEHVRRGQLADVCLDTPLCNGHTTGMDVLWAGTPMVTMPGETLASRVAASQLTCLGCLELIAKSRQEYEDIAVKLGTDLEYLKKIRGKVWKQRISSPLFNTKQYTMELERLYLQMWEHYAAGNKPDHMIKPVEVTESA

What was measured:
Assay in all cases: proximity labelling
[1] = target: T1, 3xFLAG-BirA*-tagged TCF7L1 at the endogenous TCF7L1 locus (mouse (endogenous in mESCs))
[2] = target: T2, dox-inducible 3xFLAG-BirA*-tagged TCF7L1 in the Rosa26 locus
[3] = target: T2, dox-inducible 3xFLAG-BirA*-tagged TCF7L1 in the Rosa26 locus; remark: listed apart in the source

| Molecule | binding [1] | binding [2] | binding [3] |
| --- | --- | --- | --- |
| SMARCC1 (from UniProt P97496 1-1104) | binds | binds | – |
| EIF4A2 (from UniProt P10630 1-407) | binds | – | – |
| BCL-6 Corepressor (BCOR) (from UniProt Q8CGN4 1-1759) | binds | binds | – |
| APC (from UniProt Q61315 1-2845) | – | binds | – |
| PRR12 (from UniProt E9PYL2 1-2035) | binds | binds | – |
| CBX5 (from UniProt Q61686 1-191) | binds | – | – |
| EP400 (from UniProt Q8CHI8 1-3072) | – | binds | – |
| GATAD2B (from UniProt Q8VHR5 1-594) | binds | – | – |
| β-catenin (from UniProt Q02248 1-781) | binds | binds | – |
| RBBP5 (from UniProt Q8BX09 1-538) | binds | – | – |
| AHDC1 (from UniProt Q6PAL7 1-1594) | – | binds | – |
| SMARCD2 (from UniProt Q99JR8 1-531) | – | binds | – |
| SMARCE1 (from UniProt O54941 1-411) | binds | binds | – |
| TLE3 (from UniProt Q08122 1-772) | binds | binds | – |
| SMARCD1 (from UniProt Q61466 1-515) | binds | binds | – |
| TET1 (from UniProt Q3URK3 1-2039) | binds | binds | – |
| CBP (from UniProt P45481 1-2441) | – | binds | – |
| SALL4 (from UniProt Q8BX22 1-1067) | binds | binds | – |
| SPEN (from UniProt Q62504 1-3644) | binds | binds | – |
| MDN1 (from UniProt A2ANY6 1-5589) | binds | – | – |
| DDX3Y (from UniProt Q62095 1-658) | binds | – | – |
| TLE4 (from UniProt Q62441 1-773) | binds | binds | – |
| NCOR1 (from UniProt Q60974 1-2453) | binds | binds | – |
| ARID1B (from UniProt E9Q4N7 1-2306) | binds | binds | – |
| DPF2 (from UniProt Q61103 1-391) | binds | binds | – |
| ARID1A (from UniProt A2BH40 1-2283) | binds | binds | – |
| B1 | – | – | binds |
| B2 | – | – | binds |
